Data source: PubChem BioAssay AID1159584 (Peter MacCallum Cancer Centre, 2016)

Assay: 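Genes that CDH1-null MCF10A cells selectively depend on to survive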 (primary screen)
System: human MCF10A breast epithelial cells, parental and CDH1-null
Reagent: siRNA against human genes
Measured: 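ATP luminescence (CellTiter-Glo) viability per line relative to mean mock wells over all plates, and the ratio of CDH1-null to parental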
Scale: CDH1-null / parental viability ratio: higher = CDH1-null cells survive relatively better than parental; CDH1-null viability vs mock: higher = more viable CDH1-null cells
The whole screen tested about 18,000 reagents; below is an unselected part. Not all columns of the deposit are shown. The record does not give: the amount of reagent, the time to read-out.

gene	CDH1-null / parental viability ratio	CDH1-null viability vs mock (fraction of mock)
PTGFRN (prostaglandin F2 receptor inhibitor)	0.71	0.54
MRPS16 (mitochondrial ribosomal protein S16)	1.04	0.82
FMNL3 (formin like 3)	1.03	1.01
YBEY (ybeY metalloendoribonuclease)	1.55	0.73
ZNF611 (zinc finger protein 611)	1.14	0.96
FANCE (FA complementation group E)	1.15	0.69
RPL36 (ribosomal protein L36)	1.44	0.46
PDS5A (PDS5 cohesin associated factor A)	0.89	0.87
INSM2 (INSM transcriptional repressor 2)	1.04	0.82
G6PC1 (glucose-6-phosphatase catalytic subunit 1)	1.47	1
CDY1 (chromodomain Y-linked 1)	1.2	0.72
CDC42BPA (CDC42 binding protein kinase alpha)	0.97	0.66
PGAP2 (post-GPI attachment to proteins 2)	1.49	0.82
GALC (galactosylceramidase)	0.98	0.86
CANT1 (calcium activated nucleotidase 1)	1.01	0.9
APOC4 (apolipoprotein C4)	1.28	0.95

Continued; the last 4 above are carried over.
gene	CDH1-null / parental viability ratio	CDH1-null viability vs mock (fraction of mock)
PGAP2 (post-GPI attachment to proteins 2)	1.49	0.82
GALC (galactosylceramidase)	0.98	0.86
CANT1 (calcium activated nucleotidase 1)	1.01	0.9
APOC4 (apolipoprotein C4)	1.28	0.95
ZNF568 (zinc finger protein 568)	1.61	0.45
USP10 (ubiquitin specific peptidase 10)	1.05	0.83
GNA12 (G protein subunit alpha 12)	1.39	0.89
FOXR2 (forkhead box R2)	0.97	0.85
KEL (Kell metallo-endopeptidase (Kell blood group))	1.12	0.86
SPRYD7 (SPRY domain containing 7)	1.29	0.98
UBE2S (ubiquitin conjugating enzyme E2 S)	1.24	0.77
KCNG4	1.13	0.97
FES (FES proto-oncogene, tyrosine kinase)	0.71	0.56
TRAF1 (TNF receptor associated factor 1)	1.19	0.62
CDKL1 (cyclin dependent kinase like 1)	0.74	0.56
TPR (translocated promoter region, nuclear basket protein)	1.11	0.99
